Tested on: ribosomes
Assay: In vitro translation competition assay (reiterative translation of mccA mRNA)
Format: biochemical
Settings: in vitro translation at 37°C with and without 10-fold molar excess of competitor mRNA (02.MFF.Oa); from data fitting of n versus N

Row | Substance | nrec, ribosome recycle number (peptide molecules synthesized per active ribosome before ribosome dissociation)
1 | MGGGMRTGNAN [A11, 11-amino-acid MccA-based peptide […]] | 30
2 | MASTAGGGMRTGNAN [A15, 15-amino-acid MccA-based peptide […]] | 6.3
3 | MRTGNAN [A7, 7-amino-acid McC precursor peptide MRTGNAN, chemically synthesized] | 71
